Laboratory results: PubChem BioAssay AID504834 (National Center for Advancing Translational Sciences (NCATS), 2011)
The whole screen tested about 320,000 compounds, of which about 22,000 (6.9%) were called active. Inconclusive means that the source gave no clear call. Such entries were picked first, then a sample of the others. Calls follow the shape of the dose curve; as a rule, active = well fitted inhibition curve with a large enough effect; inconclusive = small, poorly fitted or top-dose-only effect, or another doubt; inactive = no such curve, though single readings can be large or run the other way. Potencies beside an inconclusive call are fits to weak or partial responses and may not hold up. Where a structure was tested more than once in an assay, its records may differ in their call.

Assay: Primary qHTS for delayed death inhibitors of the malarial parasite plastid, 96 hour incubation
Settings: P. falciparum luciferase reporter growth; series mostly up to 28.7 µM; activity change, negative = inhibition: at the top concentration
Summary of the method: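 Parasite growth measured via integrated firefly luciferase reporter in P. falciparum. Infected erythrocytes at 2% hematocrit, 0.05% parasitemia final were treated 96 hours at 37 C under 5% CO2, and luminescence was read.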
% is scaled to controls: 0 for no effect and ±100 for the full control effect; potency is read from the fitted curve at half-maximal effect.

Compound	Potency	activity change, negative = inhibition
O=C(CN1C(=O)C2CCCCC2C1=O)Nc1nc(-c2ccccn2)cs1 (stereo not drawn)	inconclusive: 10.4 µM [inhibitor, single point]	–
CCNC(=O)/C=C/c1ccccc1[N+](=O)[O-]	inconclusive: 0.294 µM [inhibitor, partial curve, poor fit]	–
COC(=O)c1sc(S(=O)(=O)NC(C)C(=O)O)c(C(=O)OC)c1C (stereo not drawn)	–	inactive: 16.1%
COc1ccc(/C=N/Nc2nc3ccccc3c(=O)n2-c2ccccc2)cc1OC	inconclusive: 11.7 µM [inhibitor, partial curve, poor fit]	–
O=C(Nc1nc2c(F)cc(F)cc2s1)c1ccco1	–	inactive: 205%
COc1ccc(C)cc1NC(=O)C1CC(=O)N(CCc2ccccc2)C1 (stereo not drawn)	–	inactive: 54.7%
CCC(=O)NCCNc1ccc([N+](=O)[O-])cn1	inconclusive: 2.94 µM [inhibitor, partial curve, poor fit]	–
Cc1cccc(C(=O)NC2CC3CCCC(C2)N3Cc2ccccc2)c1 (stereo not drawn)	inconclusive: 18.5 µM [inhibitor, single point]	–
CCOC(=O)c1c(/N=C/c2ccccc2O)sc2c1CCC2	inconclusive: 16.5 µM [inhibitor, single point]	–
O=C(Nc1cccc(O)c1)c1cc(S(=O)(=O)N2CCCC2)ccc1Cl	–	inactive: 19.6%
CC(=O)N1CCCC(C(=O)c2ccc3c4c(cccc24)CC3)C1 (stereo not drawn)	inconclusive: 7.38 µM [inhibitor, partial curve, poor fit]	–
CCCN(CCC)c1cc(Cl)nc(N)n1	–	inactive: 3.78%
Cc1ccc(SCC(=O)NCCc2ccccc2)cc1	inconclusive: 18.5 µM [inhibitor, single point]	–
O=C(O)c1ccc(NC(=S)NC(=O)c2cncc(Br)c2)cc1	–	inactive: -0.295%
O=C(Nc1ccccc1Cl)N1CCn2c(nc3ccccc32)C1	inconclusive: 18.5 µM [inhibitor, single point]	–
CCOC(=O)CNC(=O)Cn1cnc2c(cnn2-c2ccc(C)cc2)c1=O	inconclusive: 18.5 µM [inhibitor, single point]	–
Cc1cc(-c2n[nH]c(=S)n2/N=C/C=C/c2ccco2)n[nH]1	–	inactive: -11.9%
Cc1ccc(/C=C/C(=O)OC(C)C(=O)Nc2ccc(Cl)cn2)o1 (stereo not drawn)	–	inactive: -2.72%
CCNC(=S)Nc1cccc([N+](=O)[O-])c1	–	inactive: 16.8%
CCOC(=O)NNc1ccccc1	–	inactive: 5.69%
O=C(Cc1ccc(Cl)cc1)Nc1ccc(S(=O)(=O)Nc2ncccn2)cc1	inconclusive: 9.28 µM [inhibitor, single point]	–
CCOC(=O)C(=CNNc1ccccc1)C(=O)OCC	–	inactive: 71.4%
CCOC(=O)N1CCC(NC(=O)C2=CCN(S(=O)(=O)c3ccc(F)cc3)CC2)CC1	–	inactive: -3.61%
Nc1nnnn1/N=C/c1ccccc1C(F)(F)F	inconclusive: 11.7 µM [inhibitor, single point]	–

For convenience, some entries already given:
Compound	Potency	activity change, negative = inhibition
CCNC(=O)/C=C/c1ccccc1[N+](=O)[O-]	inconclusive: 0.294 µM [inhibitor, partial curve, poor fit]	–
COC(=O)c1sc(S(=O)(=O)NC(C)C(=O)O)c(C(=O)OC)c1C (stereo not drawn)	–	inactive: 16.1%
COc1ccc(/C=N/Nc2nc3ccccc3c(=O)n2-c2ccccc2)cc1OC	inconclusive: 11.7 µM [inhibitor, partial curve, poor fit]	–

Following part.

Compound	Potency	activity change, negative = inhibition
CC(C)c1ccc(NC(=O)COc2ccc(F)cc2C(=O)c2cnn(-c3ccccc3)c2)cc1	inconclusive: 18.5 µM [inhibitor, single point]	–
CC1Cc2ccccc2N1C(=O)CSc1nc2cc3c(cc2cc1C#N)OCO3 (stereo not drawn)	inconclusive: 10.4 µM [inhibitor, partial curve, poor fit]	–
Cc1cc([N+](=O)[O-])ccc1NC(=O)c1ccco1	inconclusive: 2.08 µM [inhibitor, single point]	–
CN1CCc2c(sc(NC(=O)c3cc(Cl)sc3Cl)c2C(N)=O)C1	inconclusive: 3.29 µM [inhibitor, single point]	–
C=CCNc1ccc(C(=O)O)cc1	inconclusive: 5.86 µM [inhibitor, single point]	–
COc1ccc(S(=O)(=O)N2CCOCC2)cc1NC(=O)c1ccc(-n2nc(C)cc2C)cc1	inconclusive: 4.65 µM [inhibitor, full curve, poor fit]	–
COc1cc(C)c(NC(=O)c2cc(C3CC3)nc3c2cnn3C(C)C)cc1OC	inconclusive: 5.86 µM [inhibitor, partial curve]	–
CCOc1ccc(CN(C)C(C)C(=O)NCCc2ccc(F)cc2)cc1 (stereo not drawn)	inconclusive: 16.5 µM [inhibitor, single point]	–
C=C1C=C(C(F)F)n2ncc(C(=O)Nc3ccc(C(C)CC)cc3)c2N1 (stereo not drawn)	–	inactive: -16.1%
CCOC(=O)c1sc(=S)n(-c2ccccc2Cl)c1C	inconclusive: 0.165 µM [inhibitor, full curve]	–
CC(C)(C)OC(=O)NCCCC[C@@H](C(=O)N1CCN(C(=O)OC(C)(C)C)CC1)n1cc(CCC(=O)O)nn1	–	inactive: 38.5%
COc1cc(/C=c2\sc3n(c2=O)C(c2ccccc2)C(c2ccccc2)=NN=3)ccc1O (stereo not drawn)	active: 4.15 µM	–
C/C(CC(=O)Nc1ccc([N+](=O)[O-])cc1)=N\NC(=O)c1ccccc1[N+](=O)[O-]	–	inactive: 52.1%
CC(C)C(NC(=O)C1CCC(C(C)(C)C)CC1)C(=O)NCCc1ccc(S(N)(=O)=O)cc1 (stereo not drawn)	inconclusive: 18.5 µM [inhibitor, partial curve, poor fit]	–
Cc1ccc(NS(=O)(=O)c2cc([N+](=O)[O-])ccc2NNC(=S)Nc2cccc(Cl)c2)c(C)c1	inconclusive: 18.5 µM [inhibitor, single point]	–
COc1ccc(C(=O)C2CCCN(C/C=C/c3ccccc3OC)C2)c(OC)c1 (stereo not drawn)	–	inactive: 25.2%
COC(=O)c1ccc(Cn2nc(C)cc2C)cc1	–	inactive: 22.4%
Cc1ccc2cc3c(NC(=O)C(C)C)nn(C)c3nc2c1	inconclusive: 18.5 µM [inhibitor, single point]	–
CN(C)S(=O)(=O)c1cccc(-c2nnc(-c3ccccc3)o2)c1	inconclusive: 18.5 µM [inhibitor, single point]	–
Cc1ccc(CN2C(=O)CCC2C(=O)NCC2CCCO2)cc1 (stereo not drawn)	inconclusive: 10.4 µM [inhibitor, single point]	–
Cc1ccc(O)c(C(=O)c2cc(C#N)c(=O)n(-c3c(C)n(C)n(-c4ccccc4)c3=O)c2)c1	–	inactive: -11.6%
Cc1n[nH]c(C)c1Cc1c(F)cccc1Cl	–	inactive: 15.2%
CC(C)c1ccc(-n2nc3ccc(N)cc3n2)cc1	inconclusive: 5.22 µM [inhibitor, partial curve, poor fit]	–
